Experimental data from article PMC6313912.
Results are given in words; binding and its absence hold for the method and conditions named. Binding seen in cells or lysates may run through a third protein. Some results given as binding are weak or reduced against the parent protein; the word gives no strength.

Protein sequences, listed by entry. Tags and fused reporters are not part of them.
UniProt P06241: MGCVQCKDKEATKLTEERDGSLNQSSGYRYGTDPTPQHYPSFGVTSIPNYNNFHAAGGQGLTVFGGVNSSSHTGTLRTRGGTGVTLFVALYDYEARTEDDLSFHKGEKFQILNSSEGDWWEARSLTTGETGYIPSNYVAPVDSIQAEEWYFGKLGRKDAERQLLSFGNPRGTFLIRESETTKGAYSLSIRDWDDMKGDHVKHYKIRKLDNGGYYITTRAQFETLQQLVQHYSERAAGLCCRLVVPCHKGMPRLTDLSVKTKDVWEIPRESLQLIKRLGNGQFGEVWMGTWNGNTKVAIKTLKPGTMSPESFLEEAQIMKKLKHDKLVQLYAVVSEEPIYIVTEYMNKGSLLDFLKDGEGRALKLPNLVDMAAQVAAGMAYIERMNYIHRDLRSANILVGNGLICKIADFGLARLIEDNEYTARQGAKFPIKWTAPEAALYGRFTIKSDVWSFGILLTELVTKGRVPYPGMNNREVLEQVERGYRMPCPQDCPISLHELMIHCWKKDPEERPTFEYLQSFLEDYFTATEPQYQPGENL
UniProt Q99996: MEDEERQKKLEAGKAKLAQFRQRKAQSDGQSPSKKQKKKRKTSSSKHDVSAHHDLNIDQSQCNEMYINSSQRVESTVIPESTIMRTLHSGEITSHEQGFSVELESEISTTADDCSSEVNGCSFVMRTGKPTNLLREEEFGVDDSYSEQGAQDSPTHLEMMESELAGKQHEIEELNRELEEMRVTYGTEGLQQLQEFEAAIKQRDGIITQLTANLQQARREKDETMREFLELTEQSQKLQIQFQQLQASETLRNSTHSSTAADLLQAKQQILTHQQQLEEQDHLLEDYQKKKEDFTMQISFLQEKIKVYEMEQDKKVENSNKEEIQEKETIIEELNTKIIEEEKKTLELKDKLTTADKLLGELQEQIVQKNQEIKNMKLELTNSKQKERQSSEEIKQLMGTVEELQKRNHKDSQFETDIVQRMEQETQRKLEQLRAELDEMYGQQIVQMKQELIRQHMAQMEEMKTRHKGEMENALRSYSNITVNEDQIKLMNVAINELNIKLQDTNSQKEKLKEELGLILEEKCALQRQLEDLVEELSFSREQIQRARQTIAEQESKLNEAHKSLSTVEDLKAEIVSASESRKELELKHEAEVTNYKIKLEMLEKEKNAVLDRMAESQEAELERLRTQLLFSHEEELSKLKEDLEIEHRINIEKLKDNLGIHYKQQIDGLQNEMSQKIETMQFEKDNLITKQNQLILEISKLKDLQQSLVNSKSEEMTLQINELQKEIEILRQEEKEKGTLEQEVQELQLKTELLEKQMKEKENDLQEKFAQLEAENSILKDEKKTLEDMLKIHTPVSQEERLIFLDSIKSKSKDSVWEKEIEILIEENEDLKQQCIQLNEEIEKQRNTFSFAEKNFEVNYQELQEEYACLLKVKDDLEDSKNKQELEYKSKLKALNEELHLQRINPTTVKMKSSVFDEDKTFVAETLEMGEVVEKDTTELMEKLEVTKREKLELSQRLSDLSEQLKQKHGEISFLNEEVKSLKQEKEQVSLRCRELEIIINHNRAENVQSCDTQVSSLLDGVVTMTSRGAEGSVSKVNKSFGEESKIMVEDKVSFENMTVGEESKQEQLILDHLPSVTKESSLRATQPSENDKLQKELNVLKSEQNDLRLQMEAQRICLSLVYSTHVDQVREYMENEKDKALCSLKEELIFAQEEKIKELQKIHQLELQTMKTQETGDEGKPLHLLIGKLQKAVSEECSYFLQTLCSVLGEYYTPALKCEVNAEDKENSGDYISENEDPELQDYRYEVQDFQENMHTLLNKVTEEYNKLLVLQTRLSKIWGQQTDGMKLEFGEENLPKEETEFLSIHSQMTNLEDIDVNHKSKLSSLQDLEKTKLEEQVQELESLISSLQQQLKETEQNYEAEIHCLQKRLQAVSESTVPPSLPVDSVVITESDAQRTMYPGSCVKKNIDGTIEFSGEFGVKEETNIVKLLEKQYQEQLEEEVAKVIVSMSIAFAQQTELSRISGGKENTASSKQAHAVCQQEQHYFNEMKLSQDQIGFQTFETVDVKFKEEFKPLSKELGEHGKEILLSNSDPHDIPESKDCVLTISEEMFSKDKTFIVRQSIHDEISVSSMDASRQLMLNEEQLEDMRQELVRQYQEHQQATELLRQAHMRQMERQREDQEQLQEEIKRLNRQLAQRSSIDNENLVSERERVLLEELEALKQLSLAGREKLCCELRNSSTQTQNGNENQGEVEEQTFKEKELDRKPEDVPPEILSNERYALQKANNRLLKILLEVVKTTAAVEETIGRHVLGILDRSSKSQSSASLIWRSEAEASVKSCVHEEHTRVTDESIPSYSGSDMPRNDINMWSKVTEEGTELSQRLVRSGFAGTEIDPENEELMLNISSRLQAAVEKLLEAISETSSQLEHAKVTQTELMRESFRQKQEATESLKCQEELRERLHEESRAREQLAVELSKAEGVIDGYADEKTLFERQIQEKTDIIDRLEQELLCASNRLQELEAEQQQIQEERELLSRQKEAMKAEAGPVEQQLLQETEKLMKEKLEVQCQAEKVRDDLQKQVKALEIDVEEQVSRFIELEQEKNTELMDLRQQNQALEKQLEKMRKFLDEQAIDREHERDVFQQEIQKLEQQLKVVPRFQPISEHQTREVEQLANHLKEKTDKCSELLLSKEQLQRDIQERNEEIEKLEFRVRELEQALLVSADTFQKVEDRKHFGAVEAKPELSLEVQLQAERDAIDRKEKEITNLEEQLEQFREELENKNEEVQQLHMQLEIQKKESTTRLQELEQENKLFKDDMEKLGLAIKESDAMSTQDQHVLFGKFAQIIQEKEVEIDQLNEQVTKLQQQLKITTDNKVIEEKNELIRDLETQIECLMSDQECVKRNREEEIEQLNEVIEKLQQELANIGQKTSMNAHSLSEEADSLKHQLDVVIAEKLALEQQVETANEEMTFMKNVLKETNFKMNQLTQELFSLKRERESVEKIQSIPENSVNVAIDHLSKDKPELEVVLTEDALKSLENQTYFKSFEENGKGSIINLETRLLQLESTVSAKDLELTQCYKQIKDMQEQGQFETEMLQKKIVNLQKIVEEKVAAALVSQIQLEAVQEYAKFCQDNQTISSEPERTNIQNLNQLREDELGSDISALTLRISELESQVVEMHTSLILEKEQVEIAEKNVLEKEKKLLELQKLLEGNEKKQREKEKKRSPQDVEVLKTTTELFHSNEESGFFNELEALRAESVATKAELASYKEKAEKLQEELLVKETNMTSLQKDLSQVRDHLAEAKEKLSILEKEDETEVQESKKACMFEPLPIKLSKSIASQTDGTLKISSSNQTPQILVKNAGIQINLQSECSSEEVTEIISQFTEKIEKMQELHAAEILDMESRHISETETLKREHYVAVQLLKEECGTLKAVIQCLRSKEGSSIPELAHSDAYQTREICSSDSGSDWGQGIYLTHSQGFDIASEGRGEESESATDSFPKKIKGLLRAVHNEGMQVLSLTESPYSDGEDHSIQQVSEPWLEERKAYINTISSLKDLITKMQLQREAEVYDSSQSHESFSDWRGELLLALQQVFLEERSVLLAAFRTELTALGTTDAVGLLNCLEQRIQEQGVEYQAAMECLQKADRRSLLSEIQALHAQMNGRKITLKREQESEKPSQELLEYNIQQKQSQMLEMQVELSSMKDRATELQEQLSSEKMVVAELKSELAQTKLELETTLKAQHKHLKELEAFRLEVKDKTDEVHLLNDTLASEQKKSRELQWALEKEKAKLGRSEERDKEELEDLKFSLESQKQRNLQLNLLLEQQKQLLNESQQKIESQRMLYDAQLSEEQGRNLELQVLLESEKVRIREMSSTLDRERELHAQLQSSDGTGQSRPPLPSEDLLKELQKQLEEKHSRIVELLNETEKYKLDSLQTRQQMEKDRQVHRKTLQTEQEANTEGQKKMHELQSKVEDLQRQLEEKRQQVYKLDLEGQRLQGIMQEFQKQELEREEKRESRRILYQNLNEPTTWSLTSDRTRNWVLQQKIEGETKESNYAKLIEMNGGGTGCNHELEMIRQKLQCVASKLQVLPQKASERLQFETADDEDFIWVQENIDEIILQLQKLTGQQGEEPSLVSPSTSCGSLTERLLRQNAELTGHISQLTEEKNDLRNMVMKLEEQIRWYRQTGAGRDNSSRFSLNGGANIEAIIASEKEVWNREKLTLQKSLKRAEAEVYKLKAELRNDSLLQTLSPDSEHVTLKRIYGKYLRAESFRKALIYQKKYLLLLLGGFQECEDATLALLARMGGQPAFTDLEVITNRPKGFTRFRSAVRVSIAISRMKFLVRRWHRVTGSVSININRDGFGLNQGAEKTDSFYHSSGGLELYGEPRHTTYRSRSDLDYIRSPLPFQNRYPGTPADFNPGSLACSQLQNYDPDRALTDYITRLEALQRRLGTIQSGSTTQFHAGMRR
UniProt Q96SN8: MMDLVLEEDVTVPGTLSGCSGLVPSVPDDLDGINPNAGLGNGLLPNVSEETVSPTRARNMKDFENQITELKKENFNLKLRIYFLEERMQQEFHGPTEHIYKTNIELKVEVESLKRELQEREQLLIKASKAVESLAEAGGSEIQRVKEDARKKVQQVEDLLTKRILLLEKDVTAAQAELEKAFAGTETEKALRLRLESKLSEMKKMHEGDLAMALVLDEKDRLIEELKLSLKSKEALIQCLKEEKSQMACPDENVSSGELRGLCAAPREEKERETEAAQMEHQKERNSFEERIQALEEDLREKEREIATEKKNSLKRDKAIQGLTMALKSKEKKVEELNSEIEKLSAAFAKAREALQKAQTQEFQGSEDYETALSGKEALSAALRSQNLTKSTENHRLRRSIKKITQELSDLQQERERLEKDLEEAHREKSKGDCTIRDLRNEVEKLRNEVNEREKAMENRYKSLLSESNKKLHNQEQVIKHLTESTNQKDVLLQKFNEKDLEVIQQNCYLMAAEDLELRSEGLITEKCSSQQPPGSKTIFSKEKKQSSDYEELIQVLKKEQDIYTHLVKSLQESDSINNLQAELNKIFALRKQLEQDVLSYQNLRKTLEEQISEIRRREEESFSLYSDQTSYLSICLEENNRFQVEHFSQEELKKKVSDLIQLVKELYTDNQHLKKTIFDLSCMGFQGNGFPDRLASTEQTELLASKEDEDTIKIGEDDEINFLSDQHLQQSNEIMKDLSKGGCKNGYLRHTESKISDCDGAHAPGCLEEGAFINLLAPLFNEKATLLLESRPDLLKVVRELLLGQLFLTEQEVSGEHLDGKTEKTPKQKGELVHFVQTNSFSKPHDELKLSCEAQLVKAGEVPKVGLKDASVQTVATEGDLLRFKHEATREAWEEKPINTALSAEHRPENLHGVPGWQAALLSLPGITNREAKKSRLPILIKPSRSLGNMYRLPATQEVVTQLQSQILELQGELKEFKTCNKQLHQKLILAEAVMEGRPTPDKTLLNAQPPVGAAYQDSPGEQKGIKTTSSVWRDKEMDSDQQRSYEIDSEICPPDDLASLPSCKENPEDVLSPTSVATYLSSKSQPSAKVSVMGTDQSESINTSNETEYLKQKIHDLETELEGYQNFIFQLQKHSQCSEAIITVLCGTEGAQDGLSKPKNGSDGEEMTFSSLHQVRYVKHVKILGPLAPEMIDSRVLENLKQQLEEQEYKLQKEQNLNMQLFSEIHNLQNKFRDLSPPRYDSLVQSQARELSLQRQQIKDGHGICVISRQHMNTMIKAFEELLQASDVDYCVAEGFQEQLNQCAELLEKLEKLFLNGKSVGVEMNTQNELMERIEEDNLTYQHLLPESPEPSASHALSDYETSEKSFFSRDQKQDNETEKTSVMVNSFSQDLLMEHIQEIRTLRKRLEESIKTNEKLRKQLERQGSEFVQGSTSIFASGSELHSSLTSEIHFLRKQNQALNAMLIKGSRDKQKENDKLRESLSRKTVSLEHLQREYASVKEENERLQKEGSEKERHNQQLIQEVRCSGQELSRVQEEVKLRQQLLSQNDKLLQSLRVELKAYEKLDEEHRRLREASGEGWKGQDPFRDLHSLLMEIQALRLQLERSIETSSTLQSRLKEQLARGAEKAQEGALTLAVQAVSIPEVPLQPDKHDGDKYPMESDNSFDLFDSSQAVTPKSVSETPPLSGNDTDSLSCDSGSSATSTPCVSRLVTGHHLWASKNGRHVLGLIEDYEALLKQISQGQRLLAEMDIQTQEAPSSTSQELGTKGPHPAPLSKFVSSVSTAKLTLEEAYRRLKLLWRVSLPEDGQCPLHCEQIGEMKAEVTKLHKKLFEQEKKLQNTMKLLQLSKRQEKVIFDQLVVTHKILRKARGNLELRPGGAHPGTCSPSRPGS

Molecular target: endogenous Fyn (U-118 glioblastoma cells) (human (endogenous in U-118)) (UniProt P06241)
Assay: co-IP; α-Fyn immunoprecipitation of endogenous Fyn from U-118 glioblastoma cells; Western blotting; IgG control

binding, binds:
endogenous PDE4DIP (U-118 glioblastoma cells) (from UniProt Q5VU43 1-2346)
endogenous AKAP9 (U-118 glioblastoma cells) (from UniProt Q99996 1-3907)
endogenous CDK5RAP2 (U-118 glioblastoma cells) (from UniProt Q96SN8 1-1893)
